Laboratory results as given in patent US20250222143A1 (The Research Foundation for the State University of New York, priority 2021, published 2025).

Assay: general procedure: Fmoc solid-phase peptide synthesis; 2-chlorotrityl resin; HBTU/DIPEA
Conditions: whole synthesis, scale 0.086 mmol

## (2S)-2-({[(2S)-1,5-bis(tert-butoxy)-1,5-dioxopentan-2-yl]carbamoyl}amino)-6-[(2R)-3-(naphthalen-2-yl)-2-{[(1r,4r)-4-{[(2S)-2-[(4R)-5-(tert-butoxy)-4-{4-[2-(tert-butoxy)-2-oxoethyl]-7-({6-[(tertbutoxy)carbonyl]pyridin-2-yl}methyl)-1,4,7-triazonan-1-yl}-5-oxopentanamido]-6-[4-(4-iodophenyl)butanamido]hexanamido]methyl}cyclohexyl]formamido}propanamido]hexanoic acid
  isolated mass: 0.0085 g
  isolated yield: 6%
